Assay results published in PMC6006164, “Natural cyclopeptide RA-V inhibits the NF-κB signaling pathway by targeting TAK1” (Cell Death & Disease, 2018).
These are yes or no findings as the source states them, for the method shown. In cells and extracts the contact can be indirect. Some results given as binding are weak or reduced against the parent protein; the word gives no strength. For some of these results: Sequences can lack the tags named with a protein. One block for each binder: values may come before it.

What was measured:
[1] = target: T1, endogenous TAK1 (HEK293T) (human (endogenous in HEK293T)) (UniProt O43318); test: co-IP; endogenous proteins; HEK293T or RAW264.7 cells, 800 nM RA-V for 6 h, then 10 ng/mL TNF-α for 2 h or 1 μg/mL LPS for 3 h; lysates immunoprecipitated with TAK1 antibody or control IgG, immunoblot
T1 sequence: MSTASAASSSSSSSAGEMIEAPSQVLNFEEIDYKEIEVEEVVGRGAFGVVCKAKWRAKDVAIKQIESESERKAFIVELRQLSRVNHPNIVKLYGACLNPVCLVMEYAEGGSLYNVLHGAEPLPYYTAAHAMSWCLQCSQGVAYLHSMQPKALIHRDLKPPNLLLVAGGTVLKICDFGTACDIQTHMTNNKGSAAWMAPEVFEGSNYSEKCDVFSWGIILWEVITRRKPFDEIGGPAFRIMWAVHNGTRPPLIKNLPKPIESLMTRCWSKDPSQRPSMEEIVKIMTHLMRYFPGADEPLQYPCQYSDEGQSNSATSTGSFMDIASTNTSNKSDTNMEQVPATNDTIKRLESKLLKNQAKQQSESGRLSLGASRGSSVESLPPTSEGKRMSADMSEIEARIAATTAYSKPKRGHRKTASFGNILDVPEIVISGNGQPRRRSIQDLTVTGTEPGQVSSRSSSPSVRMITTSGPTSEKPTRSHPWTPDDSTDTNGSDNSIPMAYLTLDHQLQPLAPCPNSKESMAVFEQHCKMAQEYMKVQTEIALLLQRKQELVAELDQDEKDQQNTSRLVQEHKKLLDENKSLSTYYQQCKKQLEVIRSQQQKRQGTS

[2] = target: T2, endogenous TAK1 (RAW264.7) (mouse (endogenous in RAW264.7)) (UniProt Q62073); test: as above
T2 sequence: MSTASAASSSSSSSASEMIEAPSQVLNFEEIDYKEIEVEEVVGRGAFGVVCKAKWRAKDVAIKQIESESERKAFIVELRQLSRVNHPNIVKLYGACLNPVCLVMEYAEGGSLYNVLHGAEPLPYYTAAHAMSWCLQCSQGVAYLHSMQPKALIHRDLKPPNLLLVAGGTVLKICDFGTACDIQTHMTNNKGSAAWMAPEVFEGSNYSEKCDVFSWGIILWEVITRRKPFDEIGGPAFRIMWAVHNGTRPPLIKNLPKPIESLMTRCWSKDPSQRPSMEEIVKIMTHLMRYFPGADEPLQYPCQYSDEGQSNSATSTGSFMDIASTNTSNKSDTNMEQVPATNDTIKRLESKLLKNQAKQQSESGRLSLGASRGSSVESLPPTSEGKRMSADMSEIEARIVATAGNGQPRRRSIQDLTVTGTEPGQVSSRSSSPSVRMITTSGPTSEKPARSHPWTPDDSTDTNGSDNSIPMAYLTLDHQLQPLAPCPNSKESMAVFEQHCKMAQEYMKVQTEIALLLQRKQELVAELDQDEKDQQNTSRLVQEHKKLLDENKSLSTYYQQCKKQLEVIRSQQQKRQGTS

[3] = target: T3, HA-TAB1 (TAK1-binding protein 1) (UniProt Q15750); test: co-IP; HEK293T cells transfected with Flag-TAK1 and HA-TAB2, HA-TAB1 or HA-TRAF6 for 24 h, then RA-V for 6 h (various concentrations, or 800 nM); RIPA lysates immunoprecipitated with HA antibody, immunoblot
T3 sequence: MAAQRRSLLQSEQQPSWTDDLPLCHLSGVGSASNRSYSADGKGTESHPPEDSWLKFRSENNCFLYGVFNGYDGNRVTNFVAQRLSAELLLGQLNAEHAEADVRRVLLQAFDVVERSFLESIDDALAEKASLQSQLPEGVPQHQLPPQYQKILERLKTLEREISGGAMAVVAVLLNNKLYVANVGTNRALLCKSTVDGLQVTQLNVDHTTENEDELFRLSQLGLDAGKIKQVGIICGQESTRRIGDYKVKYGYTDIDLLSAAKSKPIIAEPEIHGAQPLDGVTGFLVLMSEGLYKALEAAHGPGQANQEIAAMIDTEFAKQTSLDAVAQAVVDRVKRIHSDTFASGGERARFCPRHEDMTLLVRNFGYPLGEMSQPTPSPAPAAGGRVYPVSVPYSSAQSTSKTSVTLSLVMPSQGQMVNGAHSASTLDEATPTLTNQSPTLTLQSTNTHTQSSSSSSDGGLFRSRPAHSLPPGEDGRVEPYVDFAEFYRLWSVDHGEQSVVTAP

[4] = target: T4, HA-TAB2 (TAK1-binding protein 2) (UniProt Q9NYJ8); test: as above
T4 sequence: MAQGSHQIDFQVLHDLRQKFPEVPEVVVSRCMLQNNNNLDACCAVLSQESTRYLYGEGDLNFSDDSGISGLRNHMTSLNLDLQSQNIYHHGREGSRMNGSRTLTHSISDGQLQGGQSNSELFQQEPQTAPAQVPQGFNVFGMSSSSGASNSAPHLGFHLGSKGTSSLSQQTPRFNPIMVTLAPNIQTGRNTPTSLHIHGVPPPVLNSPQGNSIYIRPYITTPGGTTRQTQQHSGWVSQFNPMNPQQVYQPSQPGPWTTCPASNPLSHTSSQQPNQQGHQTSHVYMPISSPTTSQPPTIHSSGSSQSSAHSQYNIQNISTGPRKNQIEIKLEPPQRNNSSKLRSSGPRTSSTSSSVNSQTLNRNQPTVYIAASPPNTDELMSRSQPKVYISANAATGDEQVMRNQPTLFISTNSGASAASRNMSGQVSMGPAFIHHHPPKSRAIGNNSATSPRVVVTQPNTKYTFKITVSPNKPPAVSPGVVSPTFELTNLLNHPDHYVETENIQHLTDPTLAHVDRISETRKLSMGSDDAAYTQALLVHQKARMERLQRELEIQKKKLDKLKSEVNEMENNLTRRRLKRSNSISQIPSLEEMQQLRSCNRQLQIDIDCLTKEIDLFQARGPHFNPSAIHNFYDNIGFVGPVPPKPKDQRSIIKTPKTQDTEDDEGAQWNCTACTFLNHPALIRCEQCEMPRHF

binding [1]: binds
B1: endogenous TAB2 (HEK293T) (protein, UniProt Q9NYJ8 1-693)
chain: MAQGSHQIDFQVLHDLRQKFPEVPEVVVSRCMLQNNNNLDACCAVLSQESTRYLYGEGDLNFSDDSGISGLRNHMTSLNLDLQSQNIYHHGREGSRMNGSRTLTHSISDGQLQGGQSNSELFQQEPQTAPAQVPQGFNVFGMSSSSGASNSAPHLGFHLGSKGTSSLSQQTPRFNPIMVTLAPNIQTGRNTPTSLHIHGVPPPVLNSPQGNSIYIRPYITTPGGTTRQTQQHSGWVSQFNPMNPQQVYQPSQPGPWTTCPASNPLSHTSSQQPNQQGHQTSHVYMPISSPTTSQPPTIHSSGSSQSSAHSQYNIQNISTGPRKNQIEIKLEPPQRNNSSKLRSSGPRTSSTSSSVNSQTLNRNQPTVYIAASPPNTDELMSRSQPKVYISANAATGDEQVMRNQPTLFISTNSGASAASRNMSGQVSMGPAFIHHHPPKSRAIGNNSATSPRVVVTQPNTKYTFKITVSPNKPPAVSPGVVSPTFELTNLLNHPDHYVETENIQHLTDPTLAHVDRISETRKLSMGSDDAAYTQALLVHQKARMERLQRELEIQKKKLDKLKSEVNEMENNLTRRRLKRSNSISQIPSLEEMQQLRSCNRQLQIDIDCLTKEIDLFQARGPHFNPSAIHNFYDNIGFVGPVPPKPKDQRSIIKTPKTQDTEDDEGAQWNCTACTFLNHPALIRCEQCEMPRHF

binding [2]: binds
B2: endogenous TAB2 (RAW264.7) (protein, UniProt Q99K90 1-693)
chain: MAQGSHQIDFQVLHDLRQKFPEVPEVVVSRCMLQNNNNLDACCAVLSQESTRYLYGEGDLNFSDESGISGLRNHMTSLNLDLQSQNVYHHGREGSRVNGSRTLTHSVSDGQLHGGQSNNELFQQEPQTAPAQVPQGFNVFGMPSTSGASNSTPHLGFHLGSKGTSNLSQQTPRFNPIMVTLAPNIQTGRSTPTSLHIHGVPPPVLNSPQGNSIYIRPYITTPSGTARQTQQHSGWVSQFNPMNPQQAYQPSQPGPWTTYPASNPLPHTSTQQPNQQGHQTSHVYMPISSPTTPQPPTIHSSGSSQSSAHSQYNIQNISTGPRKNQIEIKLEPPQRNSSSKLRSSGPRTASTSSLVNSQTLNRNQPTVYIAASPPNTDEMISRSQPKVYISANATAGDEQGMRNQPTLFISTNSGPSAASRNMSGQVSMGPAFIHHHPPKSRVLGGNSATSPRVVVTQPNTKYTFKITVSPNKPPAVSPGVVSPTFELTNLLNHPDHYVETENIQHLTDPALAHVDRISEARKLSMGSDDAAYTQALLVHQKARMERLQRELEMQKKKLDKLKSEVNEMENNLTRRRLKRSNSISQIPSLEEMQQLRSCNRQLQIDIDCLTKEIDLFQARGPHFNPSAIHNFYDNIGFVGPVPPKPKDQRSTIKAPKTQDAEDEEGAQWNCTACTFLNHPALIRCEQCEMPRHF

binding [3]: binds
binding [4]: binds
B3: Flag-TAK1 (transforming growth factor beta-activated kinase 1) (enzyme, UniProt O43318 1-606)
chain: MSTASAASSSSSSSAGEMIEAPSQVLNFEEIDYKEIEVEEVVGRGAFGVVCKAKWRAKDVAIKQIESESERKAFIVELRQLSRVNHPNIVKLYGACLNPVCLVMEYAEGGSLYNVLHGAEPLPYYTAAHAMSWCLQCSQGVAYLHSMQPKALIHRDLKPPNLLLVAGGTVLKICDFGTACDIQTHMTNNKGSAAWMAPEVFEGSNYSEKCDVFSWGIILWEVITRRKPFDEIGGPAFRIMWAVHNGTRPPLIKNLPKPIESLMTRCWSKDPSQRPSMEEIVKIMTHLMRYFPGADEPLQYPCQYSDEGQSNSATSTGSFMDIASTNTSNKSDTNMEQVPATNDTIKRLESKLLKNQAKQQSESGRLSLGASRGSSVESLPPTSEGKRMSADMSEIEARIAATTAYSKPKRGHRKTASFGNILDVPEIVISGNGQPRRRSIQDLTVTGTEPGQVSSRSSSPSVRMITTSGPTSEKPTRSHPWTPDDSTDTNGSDNSIPMAYLTLDHQLQPLAPCPNSKESMAVFEQHCKMAQEYMKVQTEIALLLQRKQELVAELDQDEKDQQNTSRLVQEHKKLLDENKSLSTYYQQCKKQLEVIRSQQQKRQGTS
